Data on 103 sequences can be found in PubChem BioAssay AID1347423 (Functional Genomics Laboratory (NCATS/FGL), 2020).

Screen size: about 52,000 sequences; about 210 (0.4%) were called active.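 Rule for the calls: active = gene whose silencing raises cell survival under the drug, median off-target-corrected z-score across its silencing RNAs 2 or more; inactive = the rest.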 The list shows a part of the results.

This assay can be described thus: Resistance to Poly (ADP-Ribose) Polymerase inhibitor: Gene Identification via Genome-wide siRNA Screen. The settings on record: mouse BRCA2 R2336H ES cells, olaparib, CellTiter-Glo viability; hits give high values. Put shortly:
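Genome-wide siRNA screen (3 siRNAs/gene, 20 nM) in mouse ES cells carrying hypomorphic BRCA2 R2336H; olaparib 500 nM added 48 h post-transfection, CellTiter-Glo viability 72 h later. Normalized to plate-median negative control; MAD z-scores, gene median, seed-adjusted.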
(In general: Cellular ATP, detected with luciferase, serves as a proxy for viable cell number.)
“GGCCAUCGAACUCAAUCUCTT against 2810002D13Rik”: the z-score was inactive: 0.717. With GGUUAAUUCCUUCAUUGCCTT against Gpr1, the z-score is inactive: -0.744. Under GGCCUAUGCGAAAAUCUGUTT against Camk2b stands inactive: -0.286; under GCAAUCAUUUUAGCAUGUGTT against Tas2r129, inactive: 0.636.

Take CCAUCAAAACUUACCUCACTT against AA408556: the z-score was inactive: -2.4.

As for GCCAGUUUGUGUGCAAAAATT against Lrp1, the z-score was inactive: 1.06. Under GCGAUGUUAAUUCCUAUUATT against Nhlrc1 stands inactive: -0.324.

As to GCGGACACUAAUGAACCUGTT against Tagln2, the z-score is inactive: -0.395. The value for “GGAAAUAAUAUUCCUGGGATT against 4632409L19Rik” was inactive: 0.905; that for GGACUUCAUGAAGAACCUATT against Myo1g was inactive: 0.718; that for “GCCAUUACUUAACUCAUAATT against 4930432O21Rik” was inactive: -1.11. As for GGAUCACCCAUCAAAUAUATT against Oxct1, the z-score was inactive: 0.234.

On to CCGGCUUCUGGUACUAUACTT against BC025458, for which the z-score is inactive: -0.0289. Turning to GGAUGGGCAAAAAGUUGACTT against Timm13a, the z-score was inactive: 0.634. Under “GGUCACUGACAGGUACCAUTT against E130018O15Rik” stands inactive: -0.0366. The value for “CCCUAAAUUAGCACAGUUUTT against 0610012H03Rik” was inactive: -1.97; that for CCAGAAGAACAAGGAAGUATT against MGC129481 was inactive: -0.589. The value for GGUGUACUCUGUUCCCAUGTT against Psmb6 was inactive: -2.12; that for GGUGUGUUACAACCAUUUGTT against Hsd17b9 was inactive: -0.913. GGAAACUGUAGAGAACAUUTT against Csnd: the z-score was inactive: -2.68. The value for GCAUACAUAGCACUACAUATT against Olfr536 was inactive: -0.0396; that for GCCCUUUGAAGCCUUUGAGTT against Chchd5 was inactive: -0.579; that for “GGCAUCUUGGCACUCUACUTT against 1810059G22Rik” was inactive: -2.69. On to GGACUAUUCUGAGAAUCCCTT against Olfr821, for which the z-score is inactive: 0.68. Under “CCGCAUAUUUGGAAUACGATT against 1200003O06Rik” stands inactive: 0.862. The value for GGGUCAGUGAAAAGAUCAGTT against Olfr433 was inactive: 1.79; that for GGACAGGAGCUGUUUGACCTT against Epb4.1l5 was inactive: -0.236. Under “GCCACCAUUCGGAAAUUUGTT against 5730427C23Rik” stands inactive: 0.263. For CCUAUGUGAAAAAAACUGCTT against Olfr1026, the z-score was inactive: 0.345. Under GGAUGAGCUGAGGAAAUCCTT against Psd2 stands inactive: 0.976; under CGAUAUUGGUGGAUUCUUUTT against Cntnap1, inactive: -0.473. Turning to “GCAACCAGAAAUUAGAACATT against 3830403N18Rik”, the z-score is inactive: -0.646. Under GGAUCAAUCCACAGACGACTT against Dbr1 stands inactive: -0.904.

In the case of GCCAUUAAUCCUCUCAUCUTT against Edg6, the z-score was inactive: 1.48. Under GCCGUAUUCAUUAAUAAAGTT against Ash1l stands inactive: 2.6; under GGGAAUAUUAGAAACCCUATT against Camkk1, inactive: -1.07. Under GCUGAAAUACCACUCUCCGTT against Chl1 stands active: -1.28. Under GGAAUCAACUUCAUGGUCUTT against Mrpl18 stands inactive: -0.066; under GGAUUUGUGCACGUGAUCUTT against Adam5, inactive: -2.59. In the case of CCAAACAAUCUUACAGGAATT against Olfr415, the z-score was inactive: -1.51. Under GGGAAUGGUUUCUUGAAAUTT against Pigk stands inactive: 0.991. With GCACACAAGUCUCUGAAUUTT against Ipo7, the z-score was inactive: -2.07. The value for “GGUUAAUCAUCUAGAUUACTT against E230019M04” was inactive: 1.74; that for GGAAUACAGCCCUAACCUCTT against Efnb3 was inactive: -0.0343; that for GGAAACUUACCACUACUAUTT against Tm9sf1 was inactive: -0.782. The value for GGACACAGAGAAAAAAAAATT against Apeh was inactive: 1.58. Turning to CCUGCUGUUGAGCUUCACATT against Adra1b, the z-score is inactive: -0.252. For the sequence CCUAAGAUGAUCGUAGGCUTT against Olfr1221, the z-score was inactive: -1.73. The value for “GGACUGUGAACAACUUUCGTT against 1810011O10Rik” was inactive: -0.585; that for GGUGUCAGAGGUAUUUUCATT against Biklk was inactive: 2.56. The value for GGCCUAUUCAAUGGCGUGATT against Hapln3 was inactive: -0.00598. Under CCAGUAUGGCUUAAAGACCTT against Bglap-rs1 stands inactive: -0.542. For CCACGGUUAUGAUGACGACTT against Dyrk1b, the z-score was inactive: 0.37.

For the sequence UUUUGUUCUCAAAGGAAUATT against Olfr194, the z-score was inactive: -0.797. The value for “GGAACUCCUGGAGCAGAACTT against 1110003P22Rik” was inactive: 0.447. Under “CCAACAAAUUCUGGUGGGATT against D630044F24Rik” stands inactive: -1.13; under GGCUAUUUCAGGUUCAAGATT against Tnfrsf9, inactive: 2.42. Under CGCAAAAUAAAGAGGUGGCTT against Dhrs3 stands inactive: 1.08; under GGAAUUUGAAUCACGUUUGTT against Hprt1, inactive: 0.566. As for GCACUGAAACUCCAUCCUATT against Rag1, the z-score was inactive: 1.1. Under GGAGCAAAAACCUCUAAAUTT against Itgb1bp2 stands inactive: -0.0483; under GGACCUAUUGAAGGCAAAATT against Nfkb1, inactive: -1.76. The value for GGCCUUUGUGCGCACUUAUTT against Armc5 was inactive: -1.27; that for GGAGAGAAGAUCAUUUCAATT against Ncam2 was inactive: -0.171; that for GGUGAACUGCUUAAACAAATT against Gstt2 was inactive: -0.644. As for CGCAAAGGAGGCUUUACUCTT against BC024806, the z-score is inactive: -0.417.

Consider GGCCCUAAAUUAUACCAGCTT against Mist1, for which the z-score is inactive: 0.745.

For the sequence UUCUGAUGCCCUCCAUUUUTT against Psg19, the z-score is inactive: 0.575.

For the sequence GGAAAGGAAGUAGAUAACUTT against Arcn1, the z-score is inactive: -2.38. Under GGAACUAAAAGGACCCAAUTT against Rbm21 stands inactive: -0.0823. The value for GGUGGUUGAAAUAUGAUGATT against Klhl7 was inactive: 0.479; that for GGACACUCAAUGAAAUCUATT against Foxp3 was inactive: 1.13; that for “GCUAGUUAAGAGGAGGCUGTT against 1700021I09Rik” was inactive: -0.607. Under GGUUUACAAAGGCACACCCTT against Prim2 stands inactive: 0.651; under CCUUUUUGCUGAAUGUGGATT against Aard, inactive: 0.38.

Take CGUAUUCUGGUAGUGAAGGTT against Olfr1384: the z-score is inactive: -1.8.

In the case of “GGCCUUACAUCCUGUCUUUTT against 2810038K19Rik”, the z-score was inactive: -2.08. The value for GGUUUUUGUUAAGGUCAAUTT against Abca16 was inactive: 1.03. The value for “GGCUUUCCGUAUAACCUACTT against 1700018F24Rik” was inactive: 1.09; that for “GGCUUCAGCAGAAAACUUCTT against 2810409H07Rik” was inactive: 0.498. Under CGGUUACUUGUAACAUUCCTT against Stoml3 stands inactive: -0.975; under GGGUUUAUUAGAUUUGUCUTT against Ammecr1, inactive: -0.609. Turning to GGAGUUUCUAUUCAACAUGTT against Hoxa10, the z-score was inactive: 0.168. Turning to GCCCAAGCAGUUCAUUCAUTT against Epc2, the z-score is inactive: -1.04. As for GGGUGUAGACAGUUCUUUGTT against Adam30, the z-score is inactive: -0.935. Under GUCCUGGAAGAAAUGAGAATT against Ifna4 stands inactive: 0.0224; under “GGAGAAAUGUGAUGUACAATT against A630029F06”, inactive: -0.00605; under GGAAGAGGAGGAAAAGUCUTT against Armcx1, inactive: -0.134. Under GGUUCAUGAUUUUUCAAGCTT against BC058638 stands inactive: 0.242.

As for GGGUGACAGACAAUGGUCUTT against Hk2, the z-score was inactive: 0.268. Consider GGCUAUGGAUGAACUGGUUTT against Zfp513, for which the z-score is inactive: 0.947. Under GCUGUUUUGUCAGUCACAUTT against Olfr519 stands inactive: -1.82; under “GGAAGUGGUGCGCAAGAUGTT against 2310040C09Rik”, inactive: -1.41.

For “GGCUCUGAAGACUGUGAUCTT against 1200002G13Rik”, the z-score is inactive: 1.6. Take GGACUCUGUCUCCAUCUAATT against Mtap7: the z-score is inactive: -0.334. Under GGCCUCAAAGUGUGGUUGUTT against Rhob stands inactive: -1.78. Under CCUCCUGUACGAACACGCATT against Sars2 stands inactive: 2.35; under GGGAUAGGAUUAAACAUAGTT against Hivep2, inactive: 0.38.

Take GGAAGCUGAGAACCUAGCUTT against Retnlg: the z-score was inactive: 0.984. The value for GGAACUUCUCAAAAGGCUGTT against Bzrap1 was inactive: -0.384; that for “GCUGGUCAUCAUGUGGAAGTT against D630042P16Rik” was inactive: -0.295.

For the sequence GGACUUGGAACACCAGUACTT against Pomt1, the z-score was inactive: -0.612. Under GGCCCUGUGUUUAUCAAAGTT against Cntn3 stands inactive: -0.0888.
